Measured values published in PMC8394516.
These are yes or no findings as the source states them, for the method shown. In cells and extracts the contact can be indirect. Some results given as binding are weak or reduced against the parent protein; the word gives no strength. For some of these results: Sequences can lack the tags named with a protein.

The chains behind the UniProt entries cited, without tags or fusion partners.
UniProt Q96D31: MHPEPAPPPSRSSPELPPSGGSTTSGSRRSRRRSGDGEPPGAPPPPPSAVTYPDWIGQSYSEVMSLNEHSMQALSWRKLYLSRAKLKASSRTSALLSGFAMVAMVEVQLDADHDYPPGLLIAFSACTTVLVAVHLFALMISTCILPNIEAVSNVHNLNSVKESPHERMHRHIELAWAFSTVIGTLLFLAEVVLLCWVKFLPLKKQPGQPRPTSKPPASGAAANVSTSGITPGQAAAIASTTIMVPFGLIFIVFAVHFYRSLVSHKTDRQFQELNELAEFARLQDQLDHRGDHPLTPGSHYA

Assays:
GFP-tagged Orai1 = GFP-tagged Orai1 (UniProt Q96D31); test: co-IP; GFP-tagged Orai1 precipitated from HEK293 lysate; blots for endogenous PDE4, protein kinase A and AKAP79; cells at rest and after thapsigargin for 8 min in 2 mM external Ca2+; cells pre-treated with boiled StHT-31 included
NFAT1-GFP = molecular target: T1, NFAT1-GFP (UniProt Q13469); test: co-IP; NFAT1-GFP precipitated with anti-GFP agarose beads at 4°C from HEK293 lysate (50 mM Tris-HCl pH 7.5, 150 mM NaCl, 1% Triton X-100, 4 mM EGTA); blots for endogenous proteins; cells at rest and after 2 uM thapsigargin in Ca2+-free external solution
T1 sequence: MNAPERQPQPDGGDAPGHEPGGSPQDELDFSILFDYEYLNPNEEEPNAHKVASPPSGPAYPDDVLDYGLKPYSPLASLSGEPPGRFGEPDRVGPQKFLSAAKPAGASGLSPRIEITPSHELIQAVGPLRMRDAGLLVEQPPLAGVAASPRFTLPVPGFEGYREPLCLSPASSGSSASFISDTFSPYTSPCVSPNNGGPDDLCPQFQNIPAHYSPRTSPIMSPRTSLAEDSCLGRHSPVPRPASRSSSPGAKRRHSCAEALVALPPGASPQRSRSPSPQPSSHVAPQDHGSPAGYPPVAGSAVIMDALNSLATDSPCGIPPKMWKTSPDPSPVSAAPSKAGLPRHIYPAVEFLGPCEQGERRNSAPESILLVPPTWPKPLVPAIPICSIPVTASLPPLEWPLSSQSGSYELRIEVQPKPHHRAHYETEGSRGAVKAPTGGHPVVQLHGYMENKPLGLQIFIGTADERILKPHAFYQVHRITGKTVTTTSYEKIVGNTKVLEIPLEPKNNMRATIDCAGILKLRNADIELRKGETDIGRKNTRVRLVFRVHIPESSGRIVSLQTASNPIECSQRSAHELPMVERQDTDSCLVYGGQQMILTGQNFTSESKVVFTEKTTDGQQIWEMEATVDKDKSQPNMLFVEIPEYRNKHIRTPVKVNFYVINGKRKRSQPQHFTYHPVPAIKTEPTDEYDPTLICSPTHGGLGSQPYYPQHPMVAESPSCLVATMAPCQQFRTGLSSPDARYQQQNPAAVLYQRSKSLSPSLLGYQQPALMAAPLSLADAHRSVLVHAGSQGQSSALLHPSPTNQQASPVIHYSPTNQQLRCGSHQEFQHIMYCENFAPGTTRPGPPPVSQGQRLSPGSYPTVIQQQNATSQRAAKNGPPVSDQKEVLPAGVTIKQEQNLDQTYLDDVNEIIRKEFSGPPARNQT

AKAP79-YFP [1] = molecular target: AKAP79-YFP (UniProt P24588); test: condition: only resting cells (no store depletion with thapsigargin); co-IP; as a2, resting cells only (no thapsigargin, stores not depleted)
AKAP79-YFP [2] = molecular target: AKAP79-YFP (UniProt P24588); test: co-IP; AKAP79-YFP or PKA mutant AKAP79-YFP precipitated with anti-GFP from lysate of HEK293 cells with endogenous AKAP79 knocked down and myc-Orai1 co-expressed; cells at rest and after thapsigargin in 2 mM external Ca2+

| Substance | binding (GFP-tagged Orai1) | binding (NFAT1-GFP) | binding (AKAP79-YFP [1]) | binding (AKAP79-YFP [2]) |
| --- | --- | --- | --- | --- |
| AKAP79 (endogenous) (from UniProt P24588 1-427) | binds | binds | – | – |
| Orai1-myc (from UniProt Q96D31 1-301) | – | – | no binding | binds |
